Data as given in the supplement of paper PMC12889115.
Some of the results follow. Values are raw readings; no control value is given beside them.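 Primary screen: polymyxin B was added at a level permeabilizing Salmonella outer membranes while sparing inner membranes. DMSO wells, both with and without polymyxin B, established maximum growth. Plate-to-plate variation meant each plate was ranked on its own, and the lowest-OD600 compounds were selected as hits.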

System: Salmonella enterica serovar Typhimurium SL1344
Test: bacterial growth OD600 after 18 h with compound and polymyxin B; higher = more bacterial growth (less inhibition)
Details: 50 µM, Mueller-Hinton broth

Row | SMILES | bacterial growth OD600 (polymyxin B 1 µg/mL) | bacterial growth OD600 (polymyxin B 0.75 µg/mL)
1 | CC(C)CCCC1CN(C(=O)C2CCN(C(=O)N(C)C)CC2)CCO1 (stereo unspecified) | 0.913 | 
2 | COc1ccc(OC)c(-c2cc(Cl)c3c(c2)CC(CNC(=O)CNC(C)=O)O3)c1 (stereo unspecified) |  | 0.813
3 | CN(Cc1ccncn1)C(=O)C1CCC(=O)N(CCCc2ccccc2)C1 (stereo unspecified) | 1.16 | 
4 | COc1ccc(NC2CCCN(C(=O)c3ccc(-c4ccco4)cc3)C2)cc1 (stereo unspecified) | 0.74 | 
5 | COc1cccc(O)c1CN1CCC(C(Cc2ccccc2F)N(C)C(=O)c2cccs2)CC1 (stereo unspecified) |  | 0.114
6 | CN(C(=O)c1cc2ccccc2oc1=O)C1CCCN(C2Cc3ccccc3C2)C1 (stereo unspecified) | 1.02 | 
7 | CC(Cn1cncn1)NC(=O)c1ccc2nc(Cc3ccccc3F)oc2c1 (stereo unspecified) | 0.912 | 
8 | COc1ccc2c(c1)OC(C)CN(CC(=O)N1CCCN(c3nc4ccccc4o3)CC1)C2 (stereo unspecified) |  | 0.787
9 | Cc1ccc(C)c(-c2n[nH]cc2CN2CCCC(CNC(=O)c3cccs3)C2)c1 (stereo unspecified) | 0.952 | 
10 | COc1cccc(C(C)N(C)C(=O)c2cn(Cc3ccccc3F)nn2)c1 (stereo unspecified) | 0.774 | 
11 | Cc1ccc(CCC(=O)N2CCOc3c(cc(-c4cccnc4)cc3OCCc3cccs3)C2)cc1 |  | 0.72
12 | COC(=O)C1CCCCN1Cc1c(C(=O)N(C)CCc2ccccc2)nc2sccn12 (stereo unspecified) | 0.873 | 
13 | CN(Cc1n[nH]c2c1CCCC2)C(=O)Cn1nnnc1CN1CCCCCC1 |  | 0.826
14 | COc1ccc(CN2CCOc3ccc(CN4CCN(Cc5ccccn5)CC4)cc3C2)cc1C |  | 0.791
15 | CCCCN(C)C(=O)c1nc2ccccn2c1CN1CCN(c2cccc(Cl)c2)CC1 | 0.001 | 
16 | CCC(CC)C(=O)N1CCCC1C(=O)Nc1ccccc1Oc1cccnc1 (stereo unspecified) | 1.16 | 

Row | SMILES | bacterial growth OD600 (polymyxin B 1 µg/mL) | bacterial growth OD600 (polymyxin B 0.75 µg/mL)
17 | CCOC(=O)C1(CCc2ccccc2)CCN(C(=O)C2=C(C)OCCO2)CC1 | 0.02 | 
18 | CCC(CC)C(=O)N(Cc1cc2cc3c(cc2nc1N1CCOCC1)CCC3)CC1CCCO1 (stereo unspecified) |  | 0.824
19 | O=C(NCc1ccc(F)cc1)C1CCCN(C2CCN(C(=O)C3CC3)CC2)C1 (stereo unspecified) |  | 0.712
20 | Cc1cc(CN(C)C(=O)c2ccccc2OC2CCN(Cc3ccccn3)CC2)on1 | 0.992 | 
21 | O=C(NCc1ccc2c(c1)OCO2)c1ccc(N2CCC(NCCCOc3cccnc3)CC2)cc1 |  | 0.776
22 | COCC(C)NC(=O)c1coc(COc2cccc(F)c2)n1 (stereo unspecified) | 0.906 | 
23 | COc1ccccc1Oc1ncccc1CNC(=O)C1=NNC(=O)CC1 | 1.07 | 
24 | Cc1cc(F)ccc1NC(=O)CCC1CCCN(C(=O)Cn2cccn2)C1 (stereo unspecified) | 0.964 | 
25 | CCOC(=O)N1CCN(Cc2ccc3c(c2)CN(C(=O)Cn2cnc4ccccc42)CCO3)CC1 |  | 0.85
26 | Cc1ccoc1C(=O)N1CCC(CCC(=O)N2CCN(c3ccccc3)CC2)CC1 | 0.9 | 
27 | c1ccc(CCCN2CCCC(NCc3ccco3)C2)cc1 (stereo unspecified) | 0.842 | 
28 | O=C(c1cccc(Cl)c1)C1CCCN(S(=O)(=O)c2ccc(F)c(F)c2)C1 (stereo unspecified) | 0.91 | 
29 | CCN(CCO)Cc1nc(-c2ccccc2)no1 | 0.91 | 
30 | CCOC(=O)C1(Cc2ccc(F)cc2F)CCCN(C(=O)c2cc3ccccc3cn2)C1 (stereo unspecified) | 0.122 | 
31 | C=C(C)CN(CC)C(=O)C1CCCN(C2CCN(Cc3ccccc3)CC2)C1 (stereo unspecified) |  | 0.766

3 structures already listed, ordered by molar mass, descending.
Row | SMILES | bacterial growth OD600 (polymyxin B 1 µg/mL) | bacterial growth OD600 (polymyxin B 0.75 µg/mL)
18 | CCC(CC)C(=O)N(Cc1cc2cc3c(cc2nc1N1CCOCC1)CCC3)CC1CCCO1 (stereo unspecified) |  | 0.824
26 | Cc1ccoc1C(=O)N1CCC(CCC(=O)N2CCN(c3ccccc3)CC2)CC1 | 0.9 | 
27 | c1ccc(CCCN2CCCC(NCc3ccco3)C2)cc1 (stereo unspecified) | 0.842 | 
